pIC50: −log10 of the molar value. The structures given here were assigned with low confidence; some may be wrong.
Assays:
[1] = target: T1, NMDA receptor glycine B site (Rattus norvegicus, UniProt P35439); assay: Calcium FLIPR studies, rat cortical neurons (NMDA/D-Serine induced intracellular calcium); conditions: read-out: NMDA-FLIPR-rCTX-NAM - IC50, stimulation with 30 μM NMDA and 1 μM D-Serine, antagonist pre-incubated 10 min
[2] = target: glycine binding pocket of the NMDA receptor (Rattus norvegicus, UniProt P35439); assay: [3H]MDL-105,519 displacement studies (rat cortical membranes); conditions: read-out: NMDA-MDL 105519-r-CTX - IC50; displacement of 2 nM [3H]-MDL-105,519, rat cortical membranes
[3] = target: T1, NMDA receptor glycine B site; assay: Whole cell patch-clamp recordings, rat hippocampal neurons (NMDA/D-Serine currents); assay type: cell-based; conditions: read-out: NMDA-PC-r-HIC-NAM - IC50, NMDA 200 μM + D-Serine 1 μM, -70 mV
Method: Antagonistic potencies of the test compounds are functionally evaluated using electrophysiological whole cell patch-clamp recordings and/or fluorometric intracellular Ca^2+-imaging (FLIPR) screens.
Cell preparation is performed as described by Parsons, et al. (Neuropharmacology, 1998, 37(6), 719-727). The female Sprague-Dawley rat is anaesthetised by placing in a saturated CO2-euthanasia chamber under further quiet CO2-influx. Under these conditions the rat loses consciousness after a few seconds and is then sacrificed by cervical dislocation. After opening the abdominal cavity, embryos (E20) are removed and stored in ice cold Ca^2+- and Mg^2+-free Hank's Buffered Salt Solution (pH 7.3), containing 4 g/l glucose (HBSS-CMF). Hippocampi are then isolated from the brains of at least 8 embryos after decapitation, transferred into ice cold HBSS-CMF and washed 3 to 4 times.
Hippocampi are pre-incubated for 8 min with a 0.66% trypsin (Sigma-Aldrich) and 0.1% (20 U/ml) DNAase solution (Sigma-Aldrich) in Ca^2+-free Phosphate Buffered Saline (PBS-CF) and washed 3 times with HBSS-CMF. Cells are then mechanically dissociated by trituration in a PBS-CF solution containing 0.05% (10 U/ml) DNAase and 0.3% of the trypsin inhibitor ovomucoid (all from Sigma-Aldrich). […]

O=C(O)COc1cccc(OCC(=O)O)c1NC(=O)COc1cc(C(=O)O)cc2cc(Cl)cc(Cl)c12
pIC50 [1]: 6.48
pIC50 [2]: 7.37
pIC50 [3]: 6.75

— patent US20120220577A1, “GLYCINE B ANTAGONISTS” (Merz Pharma GmbH & Co KgaA, priority 2009, published 2012)
